# Measured values: the supplement of paper PMC8728848
# The other results are listed elsewhere or left out.
# Key:
# Assay in all cases: glycan array binding signal (z-score within array); higher = stronger binding
# Settings in all cases: glycan notation: IUPAC condensed, linker removed
# [1] = target: GlcNAc(b1-3)Gal(b1-4)GlcNAc(b1-3)Gal(b1-4)GlcNAc(b1-3)Gal(b1-4)GlcNAc(b1-3)Gal(b1-4)GlcNAc(b1-2)[GlcNAc(b1-3)Gal(b1-4)GlcNAc(b1-3)Gal(b1-4)GlcNAc(b1-3)Gal(b1-4)GlcNAc(b1-3)Gal(b1-4)GlcNAc(b1-6)]Man(a1-6)[GlcNAc(b1-3)Gal(b1-4)GlcNAc(b1-3)Gal(b1-4)GlcNAc(b1-3)Gal(b1-4)GlcNAc(b1-3)Gal(b1-4)GlcNAc(b1-2)Man(a1-3)]Man(b1-4)GlcNAc(b1-4)[Fuc(a1-6)]GlcNAc
# Procedure, shortened: (§1)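 Negative Z-scores can be read as non-binding. The Z-score is calculated within each array and then averaged across arrays of one protein sequence at different concentrations or buffers and across linkers. Arrays, 3228 in all, were curated from the Consortium for Functional Glycomics database and kept only where the protein sequence was available.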
# [2] = target: GlcNAc(b1-3)Gal(b1-4)GlcNAc(b1-3)Gal(b1-4)GlcNAc(b1-3)GalNAc
# Procedure, shortened: as §1
# [3] = target: GlcNAc(b1-3)Gal(b1-4)GlcNAc(b1-3)GalNAc
# Procedure, shortened: as §1
# [4] = target: GlcNAc(b1-3)Gal(b1-4)GlcNAc(b1-3)[GlcNAc(b1-3)Gal(b1-4)GlcNAc(b1-3)]GalNAc
# Procedure, shortened: as §1
# [5] = target: GlcNAc(b1-3)Gal(b1-4)GlcNAc(b1-6)[Gal(b1-3)]GalNAc
# Procedure, shortened: as §1
# [6] = target: GlcNAc(b1-3)Gal(b1-4)GlcNAc(b1-6)[GlcNAc(b1-3)Gal(b1-3)]GalNAc
# Procedure, shortened: as §1
# [7] = target: GlcNAc(b1-3)Gal(b1-4)GlcNAc(b1-6)[GlcNAc(b1-3)]Gal(b1-4)GlcNAc
# Procedure, shortened: as §1
# GlcNAc(b1-3)GalNAc = target: GlcNAc(b1-3)GalNAc
# Procedure, shortened: as §1
# GlcNAc(b1-3)Man = target: GlcNAc(b1-3)Man
# Procedure, shortened: as §1
# [8] = target: GlcNAc(b1-3)[GlcNAc(b1-4)][GlcNAc(b1-6)]GlcNAc
# Procedure, shortened: as §1
# [9] = target: GlcNAc(b1-3)[GlcNAc(b1-6)]Gal(b1-4)GlcNAc
# Procedure, shortened: as §1
# [10] = target: GlcNAc(b1-3)[GlcNAc(b1-6)]GalNAc
# Procedure, shortened: as §1
# [11] = target: GlcNAc(b1-4)Gal(b1-4)GlcNAc
# Procedure, shortened: as §1
# GlcNAc(b1-4)GlcNAc = target: GlcNAc(b1-4)GlcNAc
# Procedure, shortened: as §1
# [12] = target: GlcNAc(b1-4)GlcNAc(b1-4)GlcNAc
# Procedure, shortened: as §1
# [13] = target: GlcNAc(b1-4)GlcNAc(b1-4)GlcNAc(b1-4)GlcNAc(b1-4)GlcNAc
# Procedure, shortened: as §1
# [14] = target: GlcNAc(b1-4)GlcNAc(b1-4)GlcNAc(b1-4)GlcNAc(b1-4)GlcNAc(b1-4)GlcNAc
# Procedure, shortened: as §1
# [15] = target: GlcNAc(b1-4)[GlcNAc(b1-6)]GalNAc
# Procedure, shortened: as §1
# [16] = target: GlcNAc(b1-6)Gal(b1-4)GlcNAc
# Procedure, shortened: as §1
# GlcNAc(b1-6)GalNAc = target: GlcNAc(b1-6)GalNAc
# Procedure, shortened: as §1
# [17] = target: GlcNAc6S(b1-3)Gal(b1-4)GlcNAc
# Procedure, shortened: as §1
# Kdn(a2-3)Gal(b1-3)GalNAc = target: Kdn(a2-3)Gal(b1-3)GalNAc
# Procedure, shortened: as §1
# Kdn(a2-3)Gal(b1-3)GlcNAc = target: Kdn(a2-3)Gal(b1-3)GlcNAc
# Procedure, shortened: as §1
# Kdn(a2-3)Gal(b1-4)Glc = target: Kdn(a2-3)Gal(b1-4)Glc
# Procedure, shortened: as §1
# Kdn(a2-3)Gal(b1-4)GlcNAc = target: Kdn(a2-3)Gal(b1-4)GlcNAc
# Procedure, shortened: as §1
# [18] = target: Kdn(a2-3)Gal(b1-4)[Fuc(a1-3)]GlcNAc
# Procedure, shortened: as §1
# Kdn(a2-6)Gal(b1-4)GlcNAc = target: Kdn(a2-6)Gal(b1-4)GlcNAc
# Procedure, shortened: as §1
# [19] = target: Man(a1-2)Man(a1-2)Man(a1-3)Man
# Procedure, shortened: as §1
# [20] = target: Man(a1-2)Man(a1-2)Man(a1-6)[Man(a1-3)]Man
# Procedure, shortened: as §1
# Man(a1-2)Man(a1-3)Man = target: Man(a1-2)Man(a1-3)Man
# Procedure, shortened: as §1
# [21] = target: Man(a1-2)Man(a1-3)[Man(a1-2)Man(a1-6)]Man
# Procedure, shortened: as §1
# [22] = target: Man(a1-2)Man(a1-3)[Man(a1-2)Man(a1-6)]Man(a1-6)[Man(a1-2)Man(a1-2)Man(a1-3)]Man
# Procedure, shortened: as §1
# [23] = target: Man(a1-2)Man(a1-3)[Man(a1-2)Man(a1-6)]Man(a1-6)[Man(a1-2)Man(a1-2)Man(a1-3)]Man(b1-4)GlcNAc(b1-4)GlcNAc
# Procedure, shortened: as §1
# [24] = target: Man(a1-2)Man(a1-3)[Man(a1-6)]Man(a1-6)[Man(a1-2)Man(a1-3)]Man(b1-4)GlcNAc(b1-4)GlcNAc
# Procedure, shortened: as §1
# [25] = target: Man(a1-2)Man(a1-6)[Man(a1-3)]Man(a1-6)[Man(a1-2)Man(a1-2)Man(a1-3)]Man
# Procedure, shortened: as §1
# [26] = target: Man(a1-2)Man(a1-6)[Man(a1-3)]Man(a1-6)[Man(a1-2)Man(a1-2)Man(a1-3)]Man(b1-4)GlcNAc(b1-4)GlcNAc
# Procedure, shortened: as §1
# Man(a1-3)[Man(a1-6)]Man = target: Man(a1-3)[Man(a1-6)]Man
# Procedure, shortened: as §1
binder,measurement,setting,value
SP15308B-bot-339-22-339 (Bacteroides ovatus) (protein) NEWEDEQYEQYVSFKAPIASGSDGVTTIYVRYKDNGKVTYQLPIIVSGSTVNSQDRDIHIAVDKDTLKTLNIERFSLYRPELWYTEMEEDKYEFPETVHIPAGSCVELLNIDFNLQDIDMLEKWVLPLTIVDDGSYAYQSHPRKNYAKALLKVVPFNNYSGSYTASSMKVYTYINGKPDTNARTTDKRTGYVVDNNSIFFYAGLINEDMDKDMRKKYKINVHFKEDGTLDMKQDDPSNEMEFELIGTPTYSSTSVMDATRPYLERRYVQIMFEYDFQDFTYGGSGTEVIPIKYRVAGSMTLLRNINTQIPDEDQQIEW,glycan array binding signal (z-score),[1],0.133
same,glycan array binding signal (z-score),[2],0.086
same,glycan array binding signal (z-score),[3],-0.584
same,glycan array binding signal (z-score),[4],0.108
same,glycan array binding signal (z-score),[5],-0.502
same,glycan array binding signal (z-score),[6],-0.386
same,glycan array binding signal (z-score),[7],0.003
same,glycan array binding signal (z-score),GlcNAc(b1-3)GalNAc,-0.376
same,glycan array binding signal (z-score),GlcNAc(b1-3)Man,-0.654
same,glycan array binding signal (z-score),[8],-0.024
same,glycan array binding signal (z-score),[9],-0.22
same,glycan array binding signal (z-score),[10],-0.225
same,glycan array binding signal (z-score),[11],-0.272
same,glycan array binding signal (z-score),GlcNAc(b1-4)GlcNAc,-0.427
same,glycan array binding signal (z-score),[12],-0.544
same,glycan array binding signal (z-score),[13],-0.482
same,glycan array binding signal (z-score),[14],-0.522
same,glycan array binding signal (z-score),[15],-0.384
same,glycan array binding signal (z-score),[16],0.154
same,glycan array binding signal (z-score),GlcNAc(b1-6)GalNAc,-0.008
same,glycan array binding signal (z-score),[17],-0.036
same,glycan array binding signal (z-score),Kdn(a2-3)Gal(b1-3)GalNAc,-0.145
same,glycan array binding signal (z-score),Kdn(a2-3)Gal(b1-3)GlcNAc,-0.219
same,glycan array binding signal (z-score),Kdn(a2-3)Gal(b1-4)Glc,-0.284
same,glycan array binding signal (z-score),Kdn(a2-3)Gal(b1-4)GlcNAc,0.143
same,glycan array binding signal (z-score),[18],0.16
same,glycan array binding signal (z-score),Kdn(a2-6)Gal(b1-4)GlcNAc,-0.425
same,glycan array binding signal (z-score),[19],-0.289
same,glycan array binding signal (z-score),[20],-0.347
same,glycan array binding signal (z-score),Man(a1-2)Man(a1-3)Man,-0.55
same,glycan array binding signal (z-score),[21],-0.727
same,glycan array binding signal (z-score),[22],0.591
same,glycan array binding signal (z-score),[23],0.147
same,glycan array binding signal (z-score),[24],-0.061
same,glycan array binding signal (z-score),[25],-0.308
same,glycan array binding signal (z-score),[26],-0.396
same,glycan array binding signal (z-score),Man(a1-3)[Man(a1-6)]Man,0.343

# Laid out differently: results already given.
binder | measurement | setting | value
SP15308B-bot-339-22-339 (Bacteroides ovatus) (protein) NEWEDEQYEQYVSFKAPIASGSDGVTTIYVRYKDNGKVTYQLPIIVSGSTVNSQDRDIHIAVDKDTLKTLNIERFSLYRPELWYTEMEEDKYEFPETVHIPAGSCVELLNIDFNLQDIDMLEKWVLPLTIVDDGSYAYQSHPRKNYAKALLKVVPFNNYSGSYTASSMKVYTYINGKPDTNARTTDKRTGYVVDNNSIFFYAGLINEDMDKDMRKKYKINVHFKEDGTLDMKQDDPSNEMEFELIGTPTYSSTSVMDATRPYLERRYVQIMFEYDFQDFTYGGSGTEVIPIKYRVAGSMTLLRNINTQIPDEDQQIEW | glycan array binding signal (z-score) | [4] | 0.108
same | glycan array binding signal (z-score) | [9] | -0.22
